Experimental data from PubChem BioAssay AID1347075 (National Center for Advancing Translational Sciences (NCATS), 2019).
Out of some 400,000 compounds screened, about 5,500 (1.4%) were called active. Inconclusive means that the source gave no clear call. Such entries were picked first, then a sample of the others. Calls follow the shape of the dose curve; as a rule, active = well fitted cell-killing curve with a large enough effect; inconclusive = small, poorly fitted or top-dose-only effect, or effect the other way; inactive = flat fitted curve, though single readings scatter. Potencies of inconclusive entries are doubtful fits and often do not repeat.

assay: qHTS assay for MDR1-selective chemotherapeutics: Primary screen using the parental adenocarcinoma cell KB-3-1; settings: KB-3-1 viability, CellTiter-Glo ATP luminescence, 72 h; activity change, negative = cytotoxic: at 46.1 µM (top of the series); also: nearly all actives have a fitted effect of over 60% in size
Method in brief: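 72 h, 37 °C compound treatment of KB-3-1 parental cells; CellTiter-Glo added, 10 min, luminescence read. Data corrected against DMSO-only plates and normalized before curve fitting.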
% is scaled to controls: 0 for no effect and ±100 for the full control effect; potency is read from the fitted curve at half-maximal effect.

SMILES	Potency	activity change, negative = cytotoxic
Cc1ccc(OCCNc2ccc(C(F)(F)F)cc2[N+](=O)[O-])cc1	inactive	–
O=C(CCN1C(=O)/C(=C\c2cccc(Br)c2)SC1=S)NCCCN1CCOCC1	inactive	–
CN(C)CCNc1ccc(CO)c2oc3ccc(O)cc3c(=O)c12	active: 16.4 µM	–
Cc1ccccc1OCc1occc1C(=O)Nc1cccc(-n2cnnn2)c1	active: 16.4 µM	–
CCOC(=O)C1CCCN(C(=O)C2CCN(S(=O)(=O)c3cccs3)CC2)C1 (stereo not drawn)	active: 20.6 µM	–
CCC(c1nnnn1CCOC)N(Cc1ccc(C)cc1)Cc1cc2cc(OC)ccc2[nH]c1=O (stereo not drawn)	inconclusive: 25.9 µM [rising, single point]	–
O=C(c1cnccn1)N1CCc2c([nH]c3ccccc23)C1c1cccc(Cl)c1 (stereo not drawn)	inconclusive: 18.4 µM [cytotoxic, single point]	–
CCN(CC)CCOC(=O)c1ccc(N/C=C(/C#N)c2nc(-c3cc4ccccc4oc3=O)cs2)cc1	inactive	–
Cc1ccc(CNC(=O)C2CCN(C(=O)N3CC(C)Oc4ccc(Cl)cc43)CC2)cc1 (stereo not drawn)	inactive	–
CCOc1ccc(NC(=O)c2ccc3c(=O)n4c(nc3c2)CCCCC4)cc1	inconclusive: 11.6 µM [cytotoxic, partial curve]	–
COc1ccc(N2CC(C(=O)Nc3ccccc3N3CCCC3)CC2=O)c(OC)c1 (stereo not drawn)	active: 7.31 µM	–
Cc1ccc(C)c(N2CCN(CCCNC(=O)c3cnn(-c4cccc(Cl)c4)c3C3CCN(C(=O)OC(C)(C)C)CC3)CC2)c1	inconclusive: 29.1 µM [cytotoxic, single point]	–
O=S1(=O)N=C(Oc2ccc(C(F)(F)F)cc2)c2ccccc21	inconclusive: 0.0411 µM [rising, full curve]	–
CCn1nc(C(=O)O)c(=O)c2cc3c(cc21)OCO3	inconclusive: 7.31 µM [cytotoxic, partial curve, poor fit]	–
CCCNC(=O)CN1C(=O)COc2ccc(S(=O)(=O)N3CCCCCC3)cc21	inconclusive: 18.4 µM [rising, partial curve]	–
CC1=C(C(=O)Nc2ccccc2)C(c2cccnc2)n2nc(-c3cccnc3)nc2N1 (stereo not drawn)	inconclusive: 20.6 µM [rising, single point]	–
Cc1nnc(NC(=O)c2nn(CC(C)C)c(=O)c3ccccc23)s1	inconclusive: 16.4 µM [rising, partial curve]	–
COc1ccc(S(=O)(=O)N(C)C[C@H]2Oc3ccc(NC(=O)C4CC4)cc3C(=O)N([C@H](C)CO)C[C@@H]2C)cc1	inconclusive: 3.66 µM [rising, full curve]	–
CCC(C)NS(=O)(=O)c1ccc(NS(=O)(=O)c2ccccc2[N+](=O)[O-])cc1 (stereo not drawn)	inactive	–
CCOc1ccc(S(=O)(=O)Nc2ccccc2C(=O)N(C)C2CCN(C)CC2)cc1	inactive	–
C/C(=N\NC(=S)Nc1ccc(F)cc1)c1ccc2c(c1)OCCO2	inconclusive: 29.1 µM [cytotoxic, single point]	–
COc1ccc(Cl)cc1NC(=O)CN(C)C(=O)c1cc2c(F)cccc2s1	inconclusive: 23.1 µM [cytotoxic, single point]	–
Cc1ccc(-c2csc(N3CCC(NS(=O)(=O)c4ccc5c(c4)OCCO5)CC3)n2)cc1	inconclusive: 23.1 µM [cytotoxic, partial curve, poor fit]	–

Record cards, as listed above. Values in the order: Potency	activity change, negative = cytotoxic
`Cc1ccc(C)c(N2CCN(CCCNC(=O)c3cnn(-c4cccc(Cl)c4)c3C3CCN(C(=O)OC(C)(C)C)CC3)CC2)c1` is listed as inconclusive: 29.1 µM [cytotoxic, single point]	–
`CC1=C(C(=O)Nc2ccccc2)C(c2cccnc2)n2nc(-c3cccnc3)nc2N1` (stereo not drawn) is listed as inconclusive: 20.6 µM [rising, single point]	–
`CN(C)CCNc1ccc(CO)c2oc3ccc(O)cc3c(=O)c12` is listed as active: 16.4 µM	–
`COc1ccc(N2CC(C(=O)Nc3ccccc3N3CCCC3)CC2=O)c(OC)c1` (stereo not drawn) is listed as active: 7.31 µM	–

Additional records follow.

SMILES	Potency	activity change, negative = cytotoxic
CCC(C)Sc1nc2c(c(=O)[nH]c(=O)n2C)n1Cc1ccc(Cl)cc1 (stereo not drawn)	inconclusive: 29.1 µM [cytotoxic, single point]	–
COc1ccc(OCc2nc3ccccc3n2Cc2ccc(C(C)(C)C)cc2)cc1	inactive	–
COc1ccccc1NC(=O)c1cc2c(-c3ccccc3)nn(-c3ccccc3)c2s1	inconclusive: 32.6 µM [cytotoxic, single point]	–
O=c1c(-c2ccc(O)cc2)coc2c([C@@H]3O[C@H](CO)[C@@H](O)[C@H](O)[C@H]3O)c(O)ccc12	inconclusive: 0.058 µM [rising, full curve]	–
C#CC1(O)CCC2C3CCC4=C(CCC(=O)C4)C3CCC21C (stereo not drawn)	inconclusive: 13 µM [cytotoxic, partial curve, poor fit]	–
COC(=O)/C=C/C(=O)Nc1cccnc1	inactive	–
Cc1cccc(-n2c(C)cc(/C=N\NC(=O)c3cccs3)c2C)c1	inconclusive: 14.6 µM [cytotoxic, partial curve]	–
COc1ccc(/C=C2\SC(=O)NC2=S)cc1OC	inconclusive: 16.4 µM [cytotoxic, single point]	–
O=C(NC(=S)Nc1ccccc1N1CCCCC1)c1ccc(F)cc1Cl	inconclusive: 23.1 µM [cytotoxic, partial curve, poor fit]	–
O=C(Cc1c(F)cccc1Cl)N/N=C/c1cccnc1	inactive	–
Cc1cc(Cl)c(OCCOCCN2CCNCC2)c(Cl)c1	inactive	–
COc1ccc(S(=O)(=O)Nc2cccc(-c3ccc(N4CCCC4)nn3)c2)cc1F	inconclusive: 29.1 µM [cytotoxic, single point]	–
CN(C)c1ccc(C(=O)N=c2sccn2C)cc1[N+](=O)[O-]	inconclusive: 16.4 µM [rising, partial curve, poor fit]	–
O=C(COC(=O)c1c2c(nc3ccccc13)/C(=C\c1cccs1)CCC2)Nc1ccccc1	active: 11.6 µM	–
CCS(=O)(=O)c1nc(S(=O)(=O)c2ccc(Cl)cc2)c(N2CCN(C)CC2)s1	–	inconclusive: -23.9%
Cc1ccccc1NC(=O)CSc1ccc(-c2ccccn2)nn1	inconclusive: 16.4 µM [cytotoxic, single point]	inconclusive: -31.7% [cytotoxic]
Cn1c(=O)c2cc(S(=O)(=O)NCCC(=O)N3CC=C(c4ccccc4)CC3)ccc2n(C)c1=O	inactive	–
COc1cc(/C=C(/C#N)c2nc3ccccc3[nH]2)ccc1OCC(=O)Nc1ccccc1C(C)C	inconclusive: 3.26 µM [cytotoxic, partial curve, poor fit]	–
Cc1ccc2[nH]c(=O)c(CN(CCCN(C)C)C(=O)Nc3ccc(Cl)cc3)cc2c1	inconclusive: 20.6 µM [cytotoxic, single point]	–
COc1ccc(-c2nn(-c3ccccc3)cc2/C=N/NS(=O)(=O)c2ccccc2)cc1	inconclusive: 18.4 µM [cytotoxic, single point]	–
C/C(=N\NC(=O)c1ccc(Cl)cc1)c1ccc(N2CCOCC2)cc1	inactive	–
CCc1ccc(/C=C2\SC(=S)N(CCCC(=O)Nc3ccccn3)C2=O)cc1	inconclusive: 29.1 µM [cytotoxic, single point]	–
CC(=O)NC(CC(=O)Nc1ccc2c(c1)OCCO2)c1ccccc1 (stereo not drawn)	inactive	–

SMILES	Potency	activity change, negative = cytotoxic
Cc1cc(C(=O)OCC(=O)NCc2ccco2)c(C)n1-c1ccc(F)cc1	inconclusive: 1.3 µM [cytotoxic, full curve, poor fit]	–
COc1ccccc1C=NNc1nc(C)cc(=O)[nH]1	inconclusive: 6.51 µM [rising, partial curve]	–
CC(=O)Nc1cccc(-c2nnc(SCC(=O)c3cc([N+](=O)[O-])ccc3Cl)o2)c1	inconclusive: 20.6 µM [cytotoxic, single point]	–
Brc1ccc[n+](CCC2CCCCC2)c1	inconclusive: 18.4 µM [cytotoxic, single point]	–
Cn1cccc1C(=O)OCC(=O)c1c[nH]c2ccccc12	inconclusive: 6.51 µM [cytotoxic, partial curve]	–
CCCc1nc(SCC(=O)N2CCc3ccccc3C2)c2ccccc2n1	inactive	–
O=CNn1cnc2c(oc3nc(-c4ccccc4)cc(-c4ccco4)c32)c1=O	inconclusive: 3.26 µM [cytotoxic, partial curve, poor fit]	–
CC(C)CC1NC(=S)N(Cc2ccccc2)C1=O (stereo not drawn)	inconclusive: 29.1 µM [cytotoxic, single point]	–
COc1cccc(=O)c2c(C)n(CC(=O)c3ccccc3)c(C)c12	–	inconclusive: -15.3%
CCN(CC)S(=O)(=O)c1cccc(NC(=O)COC(=O)c2[nH]c(C)c(C(C)=O)c2C)c1	inconclusive: 2.59 µM [cytotoxic, full curve, poor fit]	–
COCCN1Cc2cccc(C(=O)NC(C)CCc3ccco3)c2C1=O (stereo not drawn)	inactive	–
COc1ccc(C)cc1S(=O)(=O)Nc1cc2c3c(c1)CC(=O)N3CCC2	inconclusive: 29.1 µM [cytotoxic, single point]	–
COc1ccc(-c2c3c([nH]c(=S)c2C#N)CCC3)cc1	inconclusive: 14.6 µM [rising, partial curve, poor fit]	–
O=C(Nc1ccn(Cc2c(F)c(F)cc(F)c2F)n1)c1ccc(COc2ccccc2Cl)cc1	inactive	–
CS(=O)(=O)N(CC(=O)Nc1ccc(S(=O)(=O)N2CCOCC2)cc1)c1ccccc1Cl	inactive	–
CCOc1ccc(Nc2ccnc3cc(Cl)ccc23)cc1	inconclusive: 29.1 µM [cytotoxic, single point]	–
Cc1c(CN(C)C)c2c(n1Cc1ccccc1)C(=O)c1ccc(Br)cc1-2	inconclusive: 29.1 µM [cytotoxic, single point]	–
O=C(NN=C(c1ccccc1)c1ccccn1)c1ccccc1	inconclusive: 9.2 µM [cytotoxic, partial curve, poor fit]	–
Nc1ncc(Br)cc1S(=O)(=O)Nc1cc(C(F)(F)F)cc(C(F)(F)F)c1	inconclusive: 18.4 µM [cytotoxic, single point]	–
CCOC(=O)c1cnc2ccc(OCC)cc2c1NCc1cccnc1	–	inconclusive: 68.2%
COc1cccc(-c2oc3c(c2C#CC2(N)CCCCC2)C(O)CCC3)c1 (stereo not drawn)	inconclusive: 25.9 µM [cytotoxic, single point]	–
